Results are given in words; binding and its absence hold for the method and conditions named. Binding seen in cells or lysates may run through a third protein. Some results given as binding are weak or reduced against the parent protein; the word gives no strength.
What was measured:
[1] = target: SMAD-specific E3 ubiquitin protein ligase 1 (SMURF1) (human (endogenous in MDA-MB-231 and MDA-MB-468)) (UniProt Q9HCE7); assay: co-IP; MDA-MB-231 and MDA-MB-468 transfected with CAPG-171aa-FLAG; whole-cell lysates IP with anti-SMURF1 and IgG antibodies, detection with anti-FLAG, STK38, SMURF1 and GAPDH antibodies
[2] = target: T1, MEKK2 (printed as mitogen-activated protein kinase kinase 2) (human (endogenous in MDA-MB-231 and MDA-MB-468)) (UniProt Q9Y2U5); assay: co-IP; MDA-MB-231 and MDA-MB-468 cell lysates IP with anti-MEKK2 antibody, detection with anti-MEKK2, STK38 and SMURF1 antibodies
T1 sequence: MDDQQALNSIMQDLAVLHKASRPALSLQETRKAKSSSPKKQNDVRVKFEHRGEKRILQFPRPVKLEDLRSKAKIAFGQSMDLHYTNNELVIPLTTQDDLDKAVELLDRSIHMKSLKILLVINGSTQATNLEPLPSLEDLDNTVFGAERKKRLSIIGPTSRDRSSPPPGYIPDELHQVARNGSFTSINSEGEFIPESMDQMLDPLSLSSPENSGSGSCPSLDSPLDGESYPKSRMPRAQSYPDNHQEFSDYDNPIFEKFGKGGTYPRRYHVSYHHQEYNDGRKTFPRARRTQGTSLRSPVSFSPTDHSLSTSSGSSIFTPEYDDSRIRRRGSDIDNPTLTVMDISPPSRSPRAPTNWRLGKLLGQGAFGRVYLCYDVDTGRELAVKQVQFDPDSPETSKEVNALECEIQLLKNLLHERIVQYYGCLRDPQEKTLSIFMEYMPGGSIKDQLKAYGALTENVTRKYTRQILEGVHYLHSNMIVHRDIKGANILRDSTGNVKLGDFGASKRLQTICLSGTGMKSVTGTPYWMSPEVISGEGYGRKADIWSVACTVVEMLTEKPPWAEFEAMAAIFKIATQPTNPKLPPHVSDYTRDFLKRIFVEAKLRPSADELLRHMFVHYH

Amino acid sequences for entries named in this document (tags omitted).
UniProt Q9HCE7: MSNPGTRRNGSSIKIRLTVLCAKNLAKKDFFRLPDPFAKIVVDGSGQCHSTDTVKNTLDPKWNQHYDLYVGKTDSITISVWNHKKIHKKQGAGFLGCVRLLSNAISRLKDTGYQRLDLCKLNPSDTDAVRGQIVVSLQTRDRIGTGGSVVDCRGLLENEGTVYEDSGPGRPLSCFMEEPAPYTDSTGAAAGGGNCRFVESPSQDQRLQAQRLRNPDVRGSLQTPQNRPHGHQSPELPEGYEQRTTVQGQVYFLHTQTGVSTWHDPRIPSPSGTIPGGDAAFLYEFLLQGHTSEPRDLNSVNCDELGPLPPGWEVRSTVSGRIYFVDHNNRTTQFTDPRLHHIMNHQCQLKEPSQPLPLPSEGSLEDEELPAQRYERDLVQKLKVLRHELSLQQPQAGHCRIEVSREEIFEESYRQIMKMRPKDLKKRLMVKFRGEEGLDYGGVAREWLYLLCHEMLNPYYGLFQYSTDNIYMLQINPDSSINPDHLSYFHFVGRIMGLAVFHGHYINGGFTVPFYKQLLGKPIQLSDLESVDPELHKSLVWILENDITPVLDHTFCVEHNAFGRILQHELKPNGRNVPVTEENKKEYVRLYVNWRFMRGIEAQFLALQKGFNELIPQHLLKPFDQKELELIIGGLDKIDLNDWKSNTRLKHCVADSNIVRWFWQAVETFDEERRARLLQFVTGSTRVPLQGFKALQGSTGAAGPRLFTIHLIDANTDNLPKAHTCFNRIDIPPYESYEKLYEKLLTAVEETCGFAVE
UniProt Q15208: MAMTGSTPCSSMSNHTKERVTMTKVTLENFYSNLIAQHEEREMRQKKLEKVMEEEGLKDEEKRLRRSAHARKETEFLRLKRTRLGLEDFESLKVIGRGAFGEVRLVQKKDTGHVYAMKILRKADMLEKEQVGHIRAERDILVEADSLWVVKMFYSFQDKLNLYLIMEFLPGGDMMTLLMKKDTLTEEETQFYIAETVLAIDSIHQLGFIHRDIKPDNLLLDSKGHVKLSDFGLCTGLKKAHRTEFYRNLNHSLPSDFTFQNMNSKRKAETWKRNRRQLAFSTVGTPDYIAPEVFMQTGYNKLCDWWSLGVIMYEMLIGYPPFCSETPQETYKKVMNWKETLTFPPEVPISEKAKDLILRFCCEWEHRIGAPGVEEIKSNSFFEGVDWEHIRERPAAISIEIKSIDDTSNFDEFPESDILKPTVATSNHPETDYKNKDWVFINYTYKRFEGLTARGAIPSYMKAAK

binding [1]	binding [2]	Substance
binds	binds	serine/threonine kinase 38 (STK38), in TNBC cells (from UniProt Q15208 1-465)
	binds	SMAD-specific E3 ubiquitin protein ligase 1 (SMURF1) (from UniProt Q9HCE7 1-757)

— PMC10320902
